Test results taken from doi:10.1101/2025.09.17.676719.
Results are given in words; binding and its absence hold for the method and conditions named. Binding seen in cells or lysates may run through a third protein. A yes stands for co-enrichment or nearness to the bait. Other partners may have been found. One block for each molecule: values may come before it.

By UniProt entry, the sequences of proteins in these tests, tags left out. Residues count along the entry.
UniProt Q6PD10: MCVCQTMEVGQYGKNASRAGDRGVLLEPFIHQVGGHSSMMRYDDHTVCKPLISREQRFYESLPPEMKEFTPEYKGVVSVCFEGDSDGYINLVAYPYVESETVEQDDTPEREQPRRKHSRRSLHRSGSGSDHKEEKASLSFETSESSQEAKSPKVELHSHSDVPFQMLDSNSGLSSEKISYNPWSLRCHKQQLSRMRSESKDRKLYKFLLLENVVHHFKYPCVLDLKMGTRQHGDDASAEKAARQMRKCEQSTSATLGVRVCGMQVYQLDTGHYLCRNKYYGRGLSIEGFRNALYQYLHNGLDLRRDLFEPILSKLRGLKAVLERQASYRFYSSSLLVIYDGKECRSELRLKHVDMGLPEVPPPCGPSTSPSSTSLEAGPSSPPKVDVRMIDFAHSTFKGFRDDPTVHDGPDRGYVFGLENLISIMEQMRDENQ
UniProt P31431, residues 19-198: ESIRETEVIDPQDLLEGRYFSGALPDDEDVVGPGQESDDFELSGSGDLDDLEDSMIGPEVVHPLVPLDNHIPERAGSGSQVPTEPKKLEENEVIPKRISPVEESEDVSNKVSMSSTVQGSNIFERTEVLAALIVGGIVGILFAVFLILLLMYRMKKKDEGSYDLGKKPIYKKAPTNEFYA
UniProt P07355: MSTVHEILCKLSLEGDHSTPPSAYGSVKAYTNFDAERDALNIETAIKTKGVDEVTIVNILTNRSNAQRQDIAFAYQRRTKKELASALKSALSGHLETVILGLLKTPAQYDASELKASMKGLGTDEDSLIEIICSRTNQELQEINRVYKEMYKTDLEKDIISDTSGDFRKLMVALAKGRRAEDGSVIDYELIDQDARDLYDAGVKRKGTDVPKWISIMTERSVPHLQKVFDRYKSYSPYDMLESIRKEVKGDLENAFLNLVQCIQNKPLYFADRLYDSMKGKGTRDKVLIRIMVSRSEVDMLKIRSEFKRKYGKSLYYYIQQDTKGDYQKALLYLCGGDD

Target: SFB-tagged mouse IP6K1 (inositol hexakisphosphate kinase 1) (mouse) (UniProt Q6PD10)
Experiment: affinity purification with mass spectrometry

binding: binds
Molecule: endogenous Syndecan-4 (SDC4) of AGS cells (from UniProt P31431 19-198)

binding: binds
Molecule: Annexin A2 (ANXA2) (from UniProt P07355 1-339)

binding: binds
B1: AP3B1 (protein, UniProt O00203 1-1094)
chain: MSSNSFPYNEQSGGGEATELGQEATSTISPSGAFGLFSSDLKKNEDLKQMLESNKDSAKLDAMKRIVGMIAKGKNASELFPAVVKNVASKNIEIKKLVYVYLVRYAEEQQDLALLSISTFQRALKDPNQLIRASALRVLSSIRVPIIVPIMMLAIKEASADLSPYVRKNAAHAIQKLYSLDPEQKEMLIEVIEKLLKDKSTLVAGSVVMAFEEVCPDRIDLIHKNYRKLCNLLVDVEEWGQVVIIHMLTRYARTQFVSPWKEGDELEDNGKNFYESDDDQKEKTDKKKKPYTMDPDHRLLIRNTKPLLQSRNAAVVMAVAQLYWHISPKSEAGIISKSLVRLLRSNREVQYIVLQNIATMSIQRKGMFEPYLKSFYVRSTDPTMIKTLKLEILTNLANEANISTLLREFQTYVKSQDKQFAAATIQTIGRCATNILEVTDTCLNGLVCLLSNRDEIVVAESVVVIKKLLQMQPAQHGEIIKHMAKLLDSITVPVARASILWLIGENCERVPKIAPDVLRKMAKSFTSEDDLVKLQILNLGAKLYLTNSKQTKLLTQYILNLGKYDQNYDIRDRTRFIRQLIVPNVKSGALSKYAKKIFLAQKPAPLLESPFKDRDHFQLGTLSHTLNIKATGYLELSNWPEVAPDPSVRNVEVIELAKEWTPAGKAKQENSAKKFYSESEEEEDSSDSSSDSESESGSESGEQGESGEEGDSNEDSSEDSSSEQDSESGRESGLENKRTAKRNSKAKGKSDSEDGEKENEKSKTSDSSNDESSSIEDSSSDSESESEPESESESRRVTKEKEKKTKQDRTPLTKDVSLLDLDDFNPVSTPVALPTPALSPSLMADLEGLHLSTSSSVISVSTPAFVPTKTHVLLHRMSGKGLAAHYFFPRQPCIFGDKMVSIQITLNNTTDRKIENIHIGEKKLPIGMKMHVFNPIDSLEPEGSITVSMGIDFCDSTQTASFQLCTKDDCFNVNIQPPVGELLLPVAMSEKDFKKEQGVLTGMNETSAVIIAAPQNFTPSVIFQKVVNVANVGAVPSGQDNIHRFAAKTVHSGSLMLVTVELKEGSTAQLIINTEKTVIGSVLLRELKPVLSQG

binding: binds
B2: UBE4A (protein, UniProt Q14139 1-1066)
chain: MTDQENNNNISSNPFAALFGSLADAKQFAAIQKEQLKQQSDELPASPDDSDNSVSESLDEFDYSVAEISRSFRSQQEICEQLNINHMIQRIFLITLDNSDPSLKSGNGIPSRCVYLEEMAVELEDQDWLDMSNVEQALFARLLLQDPGNHLINMTSSTTLNLSADRDAGERHIFCYLYSCFQRAKEEITKVPENLLPFAVQCRNLTVSNTRTVLLTPEIYVDQNIHEQLVDLMLEAIQGAHFEDVTEFLEEVIEALILDEEVRTFPEVMIPVFDILLGRIKDLELCQILLYAYLDILLYFTRQKDMAKVFVEYIQPKDPTNGQMYQKTLLGVILSISCLLKTPGVVENHGYFLNPSRSSPQEIKVQEANIHQFMAQFHEKIYQMLKNLLQLSPETKHCILSWLGNCLHANAGRTKIWANQMPEIFFQMYASDAFFLNLGAALLKLCQPFCKPRSSRLLTFNPTYCALKELNDEERKIKNVHMRGLDKETCLIPAVQEPKFPQNYNLVTENLALTEYTLYLGFHRLHDQMVKINQNLHRLQVAWRDAQQSSSPAADNLREQFERLMTIYLSTKTAMTEPQMLQNCLNLQVSMAVLLVQLAIGNEGSQPIELTFPLPDGYSSLAYVPEFFADNLGDFLIFLRRFADDILETSADSLEHVLHFITIFTGSIERMKNPHLRAKLAEVLEAVMPHLDQTPNPLVSSVFHRKRVFCNFQYAPQLAEALIKVFVDIEFTGDPHQFEQKFNYRRPMYPILRYMWGTDTYRESIKDLADYASKNLEAMNPPLFLRFLNLLMNDAIFLLDEAIQYLSKIKIQQIEKDRGEWDSLTPEARREKEAGLQMFGQLARFHNIMSNETIGTLAFLTSEIKSLFVHPFLAERIISMLNYFLQHLVGPKMGALKVKDFSEFDFKPQQLVSDICTIYLNLGDEENFCATVPKDGRSYSPTLFAQTVRVLKKINKPGNMIMAFSNLAERIKSLADLQQQEEETYADACDEFLDPIMSTLMCDPVVLPSSRVTVDRSTIARHLLSDQTDPFNRSPLTMDQIRPNTELKEKIQRWLAERKQQKEQLE
